Binding data for one substance are collected here from article doi:10.1101/2025.10.24.684417.

The chains behind the UniProt entries cited, without tags or fusion partners.
UniProt Q13761: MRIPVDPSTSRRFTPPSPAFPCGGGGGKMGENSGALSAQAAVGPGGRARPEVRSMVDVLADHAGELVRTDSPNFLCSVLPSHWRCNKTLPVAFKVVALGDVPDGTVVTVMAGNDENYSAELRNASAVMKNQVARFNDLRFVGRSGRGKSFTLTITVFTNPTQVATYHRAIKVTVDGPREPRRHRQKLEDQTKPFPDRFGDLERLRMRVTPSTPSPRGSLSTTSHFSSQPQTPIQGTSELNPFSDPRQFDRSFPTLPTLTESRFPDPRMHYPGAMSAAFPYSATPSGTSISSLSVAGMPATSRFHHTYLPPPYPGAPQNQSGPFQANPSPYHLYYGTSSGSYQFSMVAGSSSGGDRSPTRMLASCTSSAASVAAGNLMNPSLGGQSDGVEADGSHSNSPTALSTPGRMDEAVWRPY
UniProt P51532: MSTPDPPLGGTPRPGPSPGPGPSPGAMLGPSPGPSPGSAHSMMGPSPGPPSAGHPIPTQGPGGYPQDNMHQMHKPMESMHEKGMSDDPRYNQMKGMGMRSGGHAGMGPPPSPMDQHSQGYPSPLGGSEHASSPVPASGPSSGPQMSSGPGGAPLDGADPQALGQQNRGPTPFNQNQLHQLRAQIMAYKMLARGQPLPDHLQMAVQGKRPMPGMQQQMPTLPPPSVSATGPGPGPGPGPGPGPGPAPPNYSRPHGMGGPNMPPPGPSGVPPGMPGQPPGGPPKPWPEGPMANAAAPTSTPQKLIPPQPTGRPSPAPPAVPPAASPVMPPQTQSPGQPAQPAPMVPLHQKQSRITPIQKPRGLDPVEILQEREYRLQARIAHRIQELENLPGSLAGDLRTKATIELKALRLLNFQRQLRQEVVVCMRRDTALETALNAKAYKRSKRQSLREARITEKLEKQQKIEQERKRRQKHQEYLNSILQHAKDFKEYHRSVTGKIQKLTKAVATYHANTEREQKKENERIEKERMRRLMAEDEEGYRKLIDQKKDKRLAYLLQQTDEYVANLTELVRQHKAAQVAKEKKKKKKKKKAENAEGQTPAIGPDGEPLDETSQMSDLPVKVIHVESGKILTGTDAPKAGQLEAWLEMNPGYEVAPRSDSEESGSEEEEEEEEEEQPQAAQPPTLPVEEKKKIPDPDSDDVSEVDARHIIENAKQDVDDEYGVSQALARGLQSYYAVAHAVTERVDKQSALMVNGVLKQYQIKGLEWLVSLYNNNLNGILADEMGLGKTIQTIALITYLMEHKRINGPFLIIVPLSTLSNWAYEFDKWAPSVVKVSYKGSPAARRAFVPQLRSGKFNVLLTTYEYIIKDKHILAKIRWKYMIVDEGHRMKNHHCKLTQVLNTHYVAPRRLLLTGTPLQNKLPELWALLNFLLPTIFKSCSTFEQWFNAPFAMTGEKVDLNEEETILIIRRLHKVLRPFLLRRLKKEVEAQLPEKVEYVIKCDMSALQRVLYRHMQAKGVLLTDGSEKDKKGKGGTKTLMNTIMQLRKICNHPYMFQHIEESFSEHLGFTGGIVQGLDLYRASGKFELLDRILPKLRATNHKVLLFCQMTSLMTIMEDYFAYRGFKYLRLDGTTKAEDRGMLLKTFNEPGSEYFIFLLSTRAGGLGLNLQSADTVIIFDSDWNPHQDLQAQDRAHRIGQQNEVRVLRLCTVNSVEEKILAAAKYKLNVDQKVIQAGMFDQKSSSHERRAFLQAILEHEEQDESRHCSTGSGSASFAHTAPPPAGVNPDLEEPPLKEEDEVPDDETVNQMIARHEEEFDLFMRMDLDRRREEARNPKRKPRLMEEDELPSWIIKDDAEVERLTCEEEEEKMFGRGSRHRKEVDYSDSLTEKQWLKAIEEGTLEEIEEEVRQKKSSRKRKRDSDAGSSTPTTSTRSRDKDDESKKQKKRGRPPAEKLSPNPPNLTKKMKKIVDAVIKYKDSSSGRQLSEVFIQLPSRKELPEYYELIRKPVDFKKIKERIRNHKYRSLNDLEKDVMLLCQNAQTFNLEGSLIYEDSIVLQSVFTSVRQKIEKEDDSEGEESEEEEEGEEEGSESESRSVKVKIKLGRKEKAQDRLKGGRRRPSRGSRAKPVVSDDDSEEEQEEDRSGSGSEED

Results are given in words; binding and its absence hold for the method and conditions named. Binding seen in cells or lysates may run through a third protein. A yes stands for co-enrichment or nearness to the bait. Other partners may have been found.

The experiment deals with RUNX3-TurboID, expressed in HEK293T cells (UniProt Q13761). Put plainly: proximity labelling.

With BRG1 (from UniProt P51532 1-1647), the binding entry is “binds”.
